Assay results from PubChem BioAssay AID1745850 (National Center for Advancing Translational Sciences (NCATS), 2022).
Among all 2,100 compounds or so, about 260 (12%) were called active. This list was built around the results that the source calls inconclusive (neither active nor inactive); the mix of calls is not that of the screen. Calls follow the shape of the dose curve; as a rule, active = well fitted cell-killing curve with a large enough effect; inconclusive = small, poorly fitted or top-dose-only effect, or effect the other way; inactive = flat fitted curve, though single readings scatter. Potencies beside an inconclusive call are fits to weak or partial responses and may not hold up.

test: Viability Counterscreen for Confirmatory qHTS for Inhibitors of ATXN expression; conditions: HEK-293 ATXN2-luc cells viability, CellTiter-Fluor, 24 h; activity change, negative = cytotoxicity: at 11.5 µM (top of the series) unless noted; also: nearly all actives have a fitted effect of over 50% in size
Procedure, shortened: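 Luminescence read-out (SteadyGlo, 5 min) followed a 30 min Gly-Phe-AFC (25 uM final) viability fluorescence read. ATXN2-luciferase reporter cells were exposed 24 h to a dilution series. Medium-only wells served as the 100% inhibition reference.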
Potency is read from the fitted curve at half-maximal effect.

Structure (SMILES) | Potency | activity change, negative = cytotoxicity
CN(c1ccccc1)S(=O)(=O)c1ccc(C(=O)Nc2nnc(-c3ccc(F)cc3)o2)cc1 | inconclusive: 31.6 µM [cytotoxic, partial curve, poor fit] | –
CCOC(=O)[C@H]1[C@H]2COc3ccc(OC)cc3[C@@H]2N2C(=O)c3cc(OC)c(OC)cc3NC(=O)[C@@]12C | – | inactive: -13%
CCCCn1c2ccc(F)cc2c2nnc(NN)nc21 | inconclusive: 28.2 µM [cytotoxic, partial curve] | –
CCCCC(=O)N(CCOC)c1nnc(-c2ccccc2C)s1 | – | inactive: -13.5% [at 57.5 µM]
Cn1c(SCC(=O)Nc2cc(Cl)cc(Cl)c2)nnc1-c1ccc2nonc2c1 | – | inactive: -28.1%
COc1ccc(CC2C(=O)NC(C)C(=O)N(C)C3Cc4ccc(cc4)Oc4cc(ccc4O)CC(C(=O)NC(C)C(=O)NC(C)C(=O)N2C)N(C)C3=O)cc1 (stereo unspecified) | – | inconclusive: -60.2% [at 57.5 µM]
COc1ccc(-c2csc(Nc3ccc(S(N)(=O)=O)cc3)n2)cc1OC | inconclusive: 35.5 µM [cytotoxic, partial curve, poor fit] | –
Cc1cccc(C(=O)N[C@H](C(=O)Nc2ncc(C)s2)C(C)C)c1 | inconclusive: 39.8 µM [cytotoxic, single point] | –
CC(C)Nc1nc(-c2ccccn2)nc(-c2ccccc2)c1C#N | – | inactive: -20.8% [at 57.5 µM]
Cc1cc(N2CCN(Cc3nc(-c4ccc(Cl)cc4)oc3C)CC2)cc(C)n1 | inconclusive: 39.8 µM [cytotoxic, single point] | –
CCOC(=O)N(C)c1c(CC)nc2c(OCc3ccccc3OC)cccn12 | – | inactive: -4.2% [at 57.5 µM]
[O-][n+]1onc2c1CCc1c-2nn(-c2ccccc2Cl)[n+]1[O-] | inconclusive: 28.2 µM [cytotoxic, single point] | –
NC(=O)c1c(NC(=O)c2ccc(S(=O)(=O)N3CCOCC3)cc2)sc2c1CCCCC2 | – | inactive: -15.9%
CCN(CC)S(=O)(=O)c1ccc(C)c(NC(=S)N2CCN(c3ccccn3)CC2)c1 | – | inactive: -29.4% [at 57.5 µM]
COc1ccc(/C=C2\CN(Cc3ccccc3)C/C(=C\c3ccc(OC)c(O)c3)C2=O)cc1O | active: 12.6 µM | –
CCn1c(/C=C/c2ccc([N+](=O)[O-])o2)nc2ccccc2c1=O | active: 10 µM | –
CCOC(=O)Nc1ccc(N2CCOCC2)c(S(=O)(=O)Nc2ccc(Cl)cc2)c1 | – | inactive: -10.2%
CC(C)N(C(=O)N1CCN(c2ccnc3cc(Cl)ccc23)CC1)C(C)C | inconclusive: 39.8 µM [cytotoxic, single point] | –
N#Cc1c(NCCN)nc(-c2ccco2)c2c1CCCC2 | inconclusive: 39.8 µM [cytotoxic, single point] | –
O=C(CCCN1CCc2[nH]c3ccc(F)cc3c2C1)c1ccc(F)cc1 | inconclusive: 31.6 µM [cytotoxic, single point] | –
Cc1nonc1C(=O)N/N=C/c1ccc(O)cc1O | – | inactive: -19%
CC1(C(=O)NCc2ccco2)CCN1C(=O)C1(c2ccccc2)CC1 (stereo unspecified) | – | inactive: -2.76%
CN1CCC(N(C)S(=O)(=O)c2ccc(NC(=O)COc3ccc(Br)cc3Cl)cc2)CC1 | inconclusive: 39.8 µM [cytotoxic, single point] | –

Of the compounds above, these have four or more nitrogen atoms.
Structure (SMILES) | Potency | activity change, negative = cytotoxicity
CN(c1ccccc1)S(=O)(=O)c1ccc(C(=O)Nc2nnc(-c3ccc(F)cc3)o2)cc1 | inconclusive: 31.6 µM [cytotoxic, partial curve, poor fit] | –
CCCCn1c2ccc(F)cc2c2nnc(NN)nc21 | inconclusive: 28.2 µM [cytotoxic, partial curve] | –
Cn1c(SCC(=O)Nc2cc(Cl)cc(Cl)c2)nnc1-c1ccc2nonc2c1 | – | inactive: -28.1%
COc1ccc(CC2C(=O)NC(C)C(=O)N(C)C3Cc4ccc(cc4)Oc4cc(ccc4O)CC(C(=O)NC(C)C(=O)NC(C)C(=O)N2C)N(C)C3=O)cc1 (stereo unspecified) | – | inconclusive: -60.2% [at 57.5 µM]
CC(C)Nc1nc(-c2ccccn2)nc(-c2ccccc2)c1C#N | – | inactive: -20.8% [at 57.5 µM]
Cc1cc(N2CCN(Cc3nc(-c4ccc(Cl)cc4)oc3C)CC2)cc(C)n1 | inconclusive: 39.8 µM [cytotoxic, single point] | –
[O-][n+]1onc2c1CCc1c-2nn(-c2ccccc2Cl)[n+]1[O-] | inconclusive: 28.2 µM [cytotoxic, single point] | –
CCN(CC)S(=O)(=O)c1ccc(C)c(NC(=S)N2CCN(c3ccccn3)CC2)c1 | – | inactive: -29.4% [at 57.5 µM]
CC(C)N(C(=O)N1CCN(c2ccnc3cc(Cl)ccc23)CC1)C(C)C | inconclusive: 39.8 µM [cytotoxic, single point] | –
N#Cc1c(NCCN)nc(-c2ccco2)c2c1CCCC2 | inconclusive: 39.8 µM [cytotoxic, single point] | –
Cc1nonc1C(=O)N/N=C/c1ccc(O)cc1O | – | inactive: -19%

Continuation:

Structure (SMILES) | Potency | activity change, negative = cytotoxicity
CCn1c(CCC(=O)Nc2nc3c(s2)CCCC3)nc2cc(S(=O)(=O)N(C)C)ccc21 | – | inactive: -6.64%
O=C(Nc1cccc2cccnc12)c1csc(COCCO)n1 | – | inactive: -16.4% [at 57.5 µM]
O=C(Cn1cnc([N+](=O)[O-])c1)Nc1cc(Oc2ccc(Cl)cc2Cl)cc([N+](=O)[O-])c1 | active: 3.16 µM | –
CC(C)n1ncc2c(C(=O)N3CCN(Cc4ccc(Br)s4)CC3)cc(C3CC3)nc21 | inconclusive: 7.08 µM [cytotoxic, single point] | –
O=c1oc2ccccc2c(O)c1Cc1cc(Cl)c2cccnc2c1O | inconclusive: 28.2 µM [cytotoxic, single point] | –
Cc1cccc(N=C2NN=C(c3c(C)[nH]c4ccccc34)CS2)c1 | inconclusive: 31.6 µM [cytotoxic, single point] | –
CCc1ccc(CNC(=O)c2cc3c(C)nc4ccccc4c3o2)cc1 | inconclusive: 39.8 µM [cytotoxic, single point] | –
CCC(=O)c1ccc(OCC(O)CN(CCc2ccccc2)Cc2ccccc2)cc1 (stereo unspecified) | – | inactive: -22.7%
Clc1ccc2c(NCc3ccccc3)ccnc2c1 | inconclusive: 39.8 µM [cytotoxic, single point] | –
Cc1cc(C)c2nc(NNC(=O)c3ccc(S(=O)(=O)N4CC(C)CC(C)C4)cc3)sc2c1 (stereo unspecified) | active: 11.2 µM | –
O=c1c(Cc2ccccc2)c(O)nc2n1CCS2 | – | inactive: -11.8% [at 57.5 µM]
O=C(COc1ccc(Br)cc1CO)Nc1ccc(S(=O)(=O)N2CCCCC2)cc1 | inconclusive: 39.8 µM [cytotoxic, single point] | –
COc1ccc(C2CC(c3cccc(C(F)(F)F)c3)=NN2c2ccc(S(N)(=O)=O)cc2)cc1 (stereo unspecified) | inconclusive: 3.55 µM [rising, partial curve] | –
CC(=O)Oc1ccccc1Cn1c(C)c(C(=O)NCc2ccc(Cl)c(Cl)c2)sc1=O | inconclusive: 39.8 µM [cytotoxic, single point] | –
CCn1c(-c2ccc(C)cc2)nn(CC(=O)NCCc2ccccc2)c1=S | – | inactive: -24.9%
CCNc1ccc(Br)cc(C(=O)/C=C/c2ccccc2Cl)c1=O | – | inactive: -23.3%
CCn1c2ccccc2c2cc(NC(=O)COC(=O)Cc3cn4ccsc4n3)ccc21 | – | inactive: -4.46%
OC(c1ccc(Cl)cc1)c1ncc(-c2cccc(C(F)(F)F)c2)[nH]1 (stereo unspecified) | – | inactive: 2.6%
O=[N+]([O-])c1ccc(O)c(/C=N\N=C2c3ccccc3-c3ccccc32)c1 | active: 12.6 µM | –
O=C(N/N=C(\c1ccccc1)c1ccccn1)c1ccccc1Cl | inconclusive: 11.2 µM [cytotoxic, partial curve, poor fit] | –
CCc1ccc(C(O)c2ncc(-c3cccc(C(F)(F)F)c3)[nH]2)cc1 (stereo unspecified) | – | inactive: -28.4% [at 57.5 µM]
COc1ccc(/C=C/C(=O)c2ccc3c4c(cccc24)CC3)cc1OC | inconclusive: 35.5 µM [cytotoxic, single point] | –
Cc1ccc(NS(=O)(=O)c2ccc(C(=O)NNC(=O)c3ccccc3O)cc2)cc1 | inconclusive: 15.8 µM [cytotoxic, partial curve, poor fit] | –
